According to PubChem BioAssay AID2551 (National Center for Advancing Translational Sciences (NCATS), 2010):
Out of some 310,000 compounds screened, about 17,000 (5.5%) were called active. The inconclusive results got no clear call from the source; some entries with a clear call stand among them for comparison. Calls come from the whole dose curve; as a rule, active = well fitted inhibition curve with a large enough effect; inconclusive = small, poorly fitted or top-dose-only effect, or effect the other way; inactive = no such curve, though single readings can be large or run the other way. A potency beside an inconclusive call is a rough fit, not a confirmed value.

Amino acid sequences for entries named in this document (tags omitted). A change or cut given only in a name is not applied to a line headed by its entry.
UniProt P51450: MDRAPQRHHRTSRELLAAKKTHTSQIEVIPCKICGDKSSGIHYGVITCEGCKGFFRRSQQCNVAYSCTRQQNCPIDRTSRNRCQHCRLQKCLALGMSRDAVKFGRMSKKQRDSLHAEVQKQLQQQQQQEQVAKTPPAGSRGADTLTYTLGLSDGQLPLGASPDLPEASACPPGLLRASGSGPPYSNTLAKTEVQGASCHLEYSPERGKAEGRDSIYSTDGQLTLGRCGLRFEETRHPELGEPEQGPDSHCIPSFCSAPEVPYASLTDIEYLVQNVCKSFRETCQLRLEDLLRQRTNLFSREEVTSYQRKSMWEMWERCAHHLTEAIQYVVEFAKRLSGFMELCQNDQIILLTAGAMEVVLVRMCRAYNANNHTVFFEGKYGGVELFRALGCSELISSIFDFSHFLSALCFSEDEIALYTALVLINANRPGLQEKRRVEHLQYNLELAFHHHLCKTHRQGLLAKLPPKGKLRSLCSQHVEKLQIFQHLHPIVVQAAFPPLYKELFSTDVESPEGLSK

target: Nuclear receptor ROR-gamma (Mus musculus) (UniProt P51450); assay: qHTS for inhibitors of ROR gamma transcriptional activity; details: Drosophila S2 Gal4-RORgamma UAS-luciferase reporter, 20 h; series mostly up to 53.6 µM; note: nearly all actives have a fitted effect of over 60% in size
Outline: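 Stably transfected Drosophila Schneider cells are the test system, with ROR gamma fused to Gal4 and luciferase under UAS control; luminescence is read after 20 hr of 700 uM copper sulfate induction at ambient temperature.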
Potency is the fitted concentration of half-maximal effect.

Potency, active:
N=C1SCC(=O)N1c1ncc(Cc2ccc(F)cc2)s1 0.316 µM
CCCc1cc(C(=O)N/N=C/c2cccn2C)cs1 11.2 µM
O=C(Nc1sc2c(c1-c1nc3ccccc3[nH]1)CCCC2)C1CCCC1 10 µM
O=C(/C=C/c1ccccc1)c1ccc2c3c(cccc13)CC2 12.6 µM

Potency, inactive:
O=C(COC(=O)c1ccco1)Nc1nc2ccccc2s1
Cc1ccccc1OCC(=O)Nc1sc(C(=O)Nc2cccc(C)c2C)c(C)c1C#N
CCN(CC)c1ccc(N=Nc2ncn[nH]2)cc1
N#Cc1nc(-c2ccc(F)cc2)oc1NCc1cccc2c1OCO2
COc1ccc(CNC(=O)CN2CCC(C(=O)c3ccc(OC)cc3)CC2)cc1
Clc1ccc(-c2csc(N3CCSCC3)n2)cc1
Cc1onc(-c2ccccc2Cl)c1C(=O)NNC(=O)c1ccccc1F
COc1ccc(CCn2c(O)c(C=Nc3cccc(F)c3)c(=O)[nH]c2=O)cc1OC

Potency, inconclusive:
O=C1CSC(=S)N1/N=C/c1ccc(C(F)(F)F)cc1 11.2 µM [inhibitor, partial curve]
CNc1oc(-c2ccc(Cl)cc2)nc1C#N 0.355 µM [activator, partial curve, poor fit]
Cc1ccc(NC(=O)c2ccc(OC(F)(F)F)cc2)cc1S(=O)(=O)N(C)C 14.1 µM [activator, single point]
COc1ccccc1OCCNC1CCCC1 6.31 µM [inhibitor, full curve, poor fit]
Cc1nnc(SC(C)C(=O)Nc2ncc(Cl)cc2Cl)n1Cc1ccccc1 (stereo not drawn) 35.5 µM [inhibitor, single point]
O=C(COC(=O)c1ccccc1Nc1ccc(SC(F)F)cc1)NCc1ccco1 35.5 µM [activator, single point]
CC(=O)c1ccc(OCc2ccc(C(=O)c3ccccc3)cc2)cc1 35.5 µM [inhibitor, single point]
CCCOC(=O)c1ccc(Nc2cc(C)nc3ncnn23)cc1 17.8 µM [inhibitor, single point]
COc1cccc(/C=C(/CC(=O)Nc2ccc(N3CCOCC3)cc2)c2nc3ccccc3s2)c1 3.98 µM [activator, single point]
Cc1ccc(Cc2c[nH]c(=S)s2)cc1 22.4 µM [inhibitor, single point]
O=C(CCl)N=c1sccn1Cc1cccc2ccccc12 25.1 µM [inhibitor, single point]

2 records picked at random from the list so far, as already listed:
Potency, inconclusive:
Cc1ccc(Cc2c[nH]c(=S)s2)cc1 22.4 µM [inhibitor, single point]
COc1cccc(/C=C(/CC(=O)Nc2ccc(N3CCOCC3)cc2)c2nc3ccccc3s2)c1 3.98 µM [activator, single point]
